From US20100144755A1 (Glaxo Group Limited, priority 2006, published 2010)
Some results were stated once for a whole list of compounds, not compound by compound.

The chains behind the UniProt entries cited, without tags or fusion partners.
UniProt Q16539, whole entry: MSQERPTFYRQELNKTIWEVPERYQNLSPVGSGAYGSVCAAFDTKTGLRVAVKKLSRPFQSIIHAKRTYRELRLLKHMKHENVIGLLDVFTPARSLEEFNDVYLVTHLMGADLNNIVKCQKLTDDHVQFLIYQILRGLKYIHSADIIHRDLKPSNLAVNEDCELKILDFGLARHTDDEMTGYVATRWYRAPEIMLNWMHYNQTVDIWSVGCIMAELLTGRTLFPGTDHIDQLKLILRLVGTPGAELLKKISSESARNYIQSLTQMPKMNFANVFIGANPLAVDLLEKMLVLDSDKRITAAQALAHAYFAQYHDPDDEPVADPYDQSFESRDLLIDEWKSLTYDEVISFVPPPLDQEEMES

Columns and labels:
[1] = test system: LPS-stimulated TNFalpha production in human whole blood; assay: LPS-stimulated cytokine production in human whole blood; type: cell-based; details: LPS 50 ng/ml final, 4 hour incubation, ELISA, result in words
Recombinant human p38α = molecular target: T1, Recombinant human p38α (Homo sapiens, UniProt Q16539); assay: Time-resolved fluorescence resonance energy transfer (TR-FRET) kinase assay (standard and low volume); type: biochemical; set-up: key: active: a pIC50 of greater than 4.6 up to about a pIC50 of greater than 10.0; details: MKK6-activated p38α 100 pM, GST-ATF2 substrate; result in words
T1 construct: His; made in house

[2] = test system: TNF-stimulated IL8 production by human neutrophils; assay: TNF-stimulated IL-8 production from human neutrophils; type: cell-based; details: TNF 100 ng/ml, about 20 hrs, screened up to 100 nM; result in words;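 also: IL-8 in cell-free supernatant quantified by sandwich ELISA, inhibition calculated against a compound-free control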

CNCCNc1nc(-c2cc(C(=O)Nc3nccs3)ccc2C)c2ccc(=O)n(-c3c(F)cccc3F)c2n1 [Example 61, 3-(8-(2,6-difluorophenyl)-2-{[2-(methylamino)ethyl]amino}-7-oxo-7,8-dihydropyrido[2,3-d]pyrimidin-4-yl)-4-methyl-N-1,3-thiazol-2-ylbenzamide]
active: activity (IC50) against LPS-stimulated cytokine production in human whole blood [1] | activity (pIC50) in TR-FRET p38α kinase assay (Recombinant human p38α) | activity (IC50) against TNF-stimulated IL-8 production from human neutrophils [2]

Cc1ccc(C(=O)NC(C)C)cc1-c1nc(NC2CC(C)(C)NC(C)(C)C2)nc2c1ccc(=O)n2-c1c(F)cccc1F [Example 62, 3-{8-(2,6-difluorophenyl)-7-oxo-2-[(2,2,6,6-tetramethyl-4-piperidinyl)amino]-7,8-dihydropyrido[2,3-d]pyrimidin-4-yl}-4-methyl-N-(1-methylethyl)benzamide]
active: activity (IC50) against LPS-stimulated cytokine production in human whole blood [1] | activity (pIC50) in TR-FRET p38α kinase assay (Recombinant human p38α) | activity (IC50) against TNF-stimulated IL-8 production from human neutrophils [2]

Cc1ccc(C(=O)Nc2ccc(F)cc2)cc1-c1nc(NC2CC(C)(C)NC(C)(C)C2)nc2c1ccc(=O)n2-c1c(F)cccc1F [Example 66, 3-{8-(2,6-difluorophenyl)-7-oxo-2-[(2,2,6,6-tetramethyl-4-piperidinyl)amino]-7,8-dihydropyrido[2,3-d]pyrimidin-4-yl}-N-(4-fluorophenyl)-4-methylbenzamide]
active: activity (IC50) against LPS-stimulated cytokine production in human whole blood [1] | activity (pIC50) in TR-FRET p38α kinase assay (Recombinant human p38α) | activity (IC50) against TNF-stimulated IL-8 production from human neutrophils [2]

Cc1ccc(C(=O)NC(C)C)cc1-c1nc(NCc2ncc[nH]2)nc2c1ccc(=O)n2-c1c(F)cccc1F [Example 74, 3-{8-(2,6-difluorophenyl)-2-[(1H-imidazol-2-ylmethyl)amino]-7-oxo-7,8-dihydropyrido[2,3-d]pyrimidin-4-yl}-4-methyl-N-(1-methylethyl)benzamide]
active: activity (IC50) against LPS-stimulated cytokine production in human whole blood [1] | activity (pIC50) in TR-FRET p38α kinase assay (Recombinant human p38α) | activity (IC50) against TNF-stimulated IL-8 production from human neutrophils [2]

Cc1ccc(C(=O)Nc2ccc(F)cc2)cc1-c1nc(NCc2ncc[nH]2)nc2c1ccc(=O)n2-c1c(F)cccc1F [Example 78, 3-{8-(2,6-difluorophenyl)-2-[(1H-imidazol-2-ylmethyl)amino]-7-oxo-7,8-dihydropyrido[2,3-d]pyrimidin-4-yl}-N-(4-fluorophenyl)-4-methylbenzamide]
active: activity (IC50) against LPS-stimulated cytokine production in human whole blood [1] | activity (pIC50) in TR-FRET p38α kinase assay (Recombinant human p38α) | activity (IC50) against TNF-stimulated IL-8 production from human neutrophils [2]

Cc1ccc(C(=O)Nc2ccc(F)cc2)cc1-c1nc(N(C)CCN(C)C)nc2c1ccc(=O)n2-c1c(F)cccc1F [Example 99, 3-{8-(2,6-difluorophenyl)-2-[[2-(dimethylamino)ethyl](methyl)amino]-7-oxo-7,8-dihydropyrido[2,3-d]pyrimidin-4-yl}-N-(4-fluorophenyl)-4-methylbenzamide]
active: activity (IC50) against LPS-stimulated cytokine production in human whole blood [1] | activity (pIC50) in TR-FRET p38α kinase assay (Recombinant human p38α) | activity (IC50) against TNF-stimulated IL-8 production from human neutrophils [2]

Cc1ccc(C(=O)Nc2nccs2)cc1-c1nc(NCCCNC(C)C)nc2c1ccc(=O)n2-c1c(F)cccc1F [Example 101, 3-[8-(2,6-difluorophenyl)-2-({3-[(1-methylethyl)amino]propyl}amino)-7-oxo-7,8-dihydropyrido[2,3-d]pyrimidin-4-yl]-4-methyl-N-1,3-thiazol-2-ylbenzamide]
active: activity (IC50) against LPS-stimulated cytokine production in human whole blood [1] | activity (pIC50) in TR-FRET p38α kinase assay (Recombinant human p38α) | activity (IC50) against TNF-stimulated IL-8 production from human neutrophils [2]
